# Not every detail of the peptide structures is certain; ends, links or a residue may be inferred.
# Assay: hydrophobicity by reversed-phase chromatography (RP-HPLC), co-injection of the two tripeptides
# Format: physicochemical
# Conditions: co-injection of tripeptides 4 and 5; tripeptide 5 as reference
compound,measurement,value
"NC(=O)CNC(=O)C(CNC(=O)CNC=O)(COC(C(F)(F)F)(C(F)(F)F)C(F)(F)F)COC(C(F)(F)F)(C(F)(F)F)C(F)(F)F [tripeptide 4, Formyl-Gly-βFa-Gly-Amide]",retention in reversed-phase chromatography (relative hydrophobicity),much more retentive than tripeptide 5

# From patent publication US8052961B2, “Highly fluorinated β-amino acids and methods of making and using same” (University of Utah Foundation, priority 2006, dated 2011)
